# Reference: PubChem BioAssay AID1259254 (NCATS, 2017)
# Test: 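Gene knock-downs that lead to re-replication, shown by excess G2 DNA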 (primary screen)
# System: human HCT116 colorectal cancer cells
# Knock-down reagent: single siRNA against human genes
# Time to read-out: 3 days
# Measurement: 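Nuclei stained with Hoechst and imaged; cell-cycle phase assigned by DNA content; G2 share scaled per plate, non-targeting siRNA 0%, GMNN siRNA 100%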
# Direction: G2 robust z-score: higher = more G2 cells, more excess DNA replication
# Call rule: 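Active siRNAs have a G2 robust z of 5 or more median absolute deviations over the median, which in these data means about 38% or higher of GMNN control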
# The whole screen tested about 59,000 reagents; shown is a part drawn at random. Over the whole deposit, about 1,550 (2.6%) are marked active. 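G2 share is only a proxy for re-replication; each gene was hit by three separate siRNAs, and active genes were retested.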 Reagents against one gene are numbered here. Further read-outs or replicates are left out here. Not given: the amount of reagent.
target,reagent,G2 robust z-score,Outcome
CPSF1,1,7.72,active
CPSF1,2,0.32,inactive
CPSF1,3,11.2,active
GOLT1B,1,-0.613,inactive
GOLT1B,2,-0.161,inactive
GOLT1B,3,0.23,inactive
LRRC59,1,0.605,inactive
LRRC59,2,1.38,inactive
LRRC59,3,0.574,inactive
LRRD1,1,-0.88,inactive
LRRD1,2,0.743,inactive
LRRD1,3,-0.94,inactive
C3P1,1,-1.37,inactive
C3P1,2,-0.774,inactive
C3P1,3,-0.365,inactive
LGALS1,1,0.0885,inactive
LGALS1,2,0.568,inactive
LGALS1,3,0.329,inactive
KPRP,1,0.217,inactive
KPRP,2,-0.877,inactive
KPRP,3,0.611,inactive
TAS2R9,1,-0.566,inactive
TAS2R9,2,0.937,inactive
TAS2R9,3,-0.289,inactive
VSIG1,1,1.16,inactive
VSIG1,2,-0.321,inactive
VSIG1,3,1.4,inactive
RABGGTB,1,3.74,inactive
RABGGTB,2,4.85,inactive
RABGGTB,3,-0.204,inactive
MRPL27,1,-0.377,inactive
MRPL27,2,2.07,inactive
MRPL27,3,-1.02,inactive
C1QTNF8,1,2.07,inactive
C1QTNF8,2,4.04,inactive
C1QTNF8,3,1.3,inactive
CERCAM,1,0.0837,inactive
CERCAM,2,4.27,inactive
CERCAM,3,-0.708,inactive
ZNF527,1,0.384,inactive
ZNF527,2,-0.851,inactive
ZNF527,3,-0.486,inactive
NRP2,1,1.98,inactive
NRP2,2,1.25,inactive
NRP2,3,-0.513,inactive
LYNX1,1,2.25,inactive
LYNX1,2,0.557,inactive
LYNX1,3,0.121,inactive

Part of the list above in another layout:
target | reagent | G2 robust z-score | Outcome
NRP2 | 1 | 1.98 | inactive
NRP2 | 2 | 1.25 | inactive
NRP2 | 3 | -0.513 | inactive
LYNX1 | 1 | 2.25 | inactive
